{"source": "patent US20150005207A1", "about": "“SYSTEMS AND METHODS FOR PRODUCING DIMETHYL SULFIDE FROM GASIFIED COKE” (SHELL OIL COMPANY, priority 2013, published 2015)", "assay": "Oil recovery from formation core by brine displacement followed by DMS displacement", "details": "0.05 ml/min", "key": {"[1]": {"details": "Core 1, after brine displacement, 32 hours"}, "[2]": {"details": "Core 2, after brine displacement, 15 hours"}}}
{"smiles": "CSC", "note": "[Dimethyl Sulfide, dimethyl sulfide]", "values": [{"measurement": "Oil produced DMS displacement", "setting": "[1]", "value": 3.5, "unit": "mL"}, {"measurement": "Oil produced DMS displacement (of % oil initially in core)", "setting": "[1]", "value": 32, "unit": "%"}, {"measurement": "Oil produced DMS displacement", "setting": "[2]", "value": 3.3, "unit": "mL"}, {"measurement": "Oil produced DMS displacement (of % oil initially in core)", "setting": "[2]", "value": 30, "unit": "%"}]}
